Test results: patent US9920096B2, “Bradykinin receptor modulators and use thereof” (Sepia Pesquisa e Desenvolvimento, priority 2013, dated 2018)
At least one compound was matched to its structure with a doubt left. No end group written: not given here.

Test system: HUVEC cells
Experiment: Intracellular calcium measurement in HUVEC cells (Fluo-3 fluorescence)
Assay type: cell-based, Human
Conditions: FIG. 5A; BK 1 μM
Protocol: The intracellular calcium measurement was performed according to the method described in Bagnaresi P et al, 2012 and Lungato L, et al., 2012.
Human umbilical vein endothelial cells were cultured in RPMI 1640 (GIBCO) containing 10% heat-inactivated fetal bovine serum (FBS), 24 mM sodium bicarbonate, […] gentamicin, 10 mM HEPES, pH 7.4 at 37° C. in a 5% CO2 humidified atmosphere. 5×10^4 cells were plated on 60 mm dishes (Costar 3260), and incubated in culture medium containing 5 μM Fluo-3 AM (Invitrogen Corporation, CA) for 40 min at 37° C. in a buffer containing the channel blocker Probenecid (40 μM), followed by 3 washes with culture medium to discard remaining extracellular probe. The cells were then placed into a culture chamber at 37° C. on the stage of a fluorescence microscope (Zeiss LSM 510 META) with excitation at 488 nm and emission at 505-530 nm. […]
Fluorescence data were normalized as F/Fmax, where Fmax represents maximal intracellular fluorescence obtained with Ca2+ released from ER with addition of THG, a Ca2+ATPase inhibitor (Bagnaresi et al. 2012). […]
The software-based analysis allowed fluorescence imaging in the whole field or in a selected cell as a function of time (Image J 1.47h, NIH, USA). […] Individual traces for typical 15 cells responses represent the intracellular calcium fluorescence changes in the analyzed cell population (Lungato et al. 2012).

Sequence: RPPGFSPFR [BK, RPPGFSPFR, reference compound]
- Cytoplasmic calcium in HUVEC (Fluo-3 fluorescence): induces calcium increase in the cytoplasm
